# Measured values: PubChem BioAssay AID493036 (Sanford-Burnham Center for Chemical Genomics, 2011)
# This is one part of the list.
# Test: agonists of NTR1, primary screen, imaging, U2OS cells, beta-arrestin-GFP, high content (AID 493036) (AID 493036)
# Conditions: NTR1-U2OS beta-arrestin-GFP spot imaging, agonist mode; measured here: cell count, cytotoxicity flag; at 20 µM
row,Structure (SMILES),cell count
1,COc1cc(I)ccc1[As](=O)(O)O,66 cells
2,COc1ccc2nc(NP(=O)(c3ccccc3)c3ccccc3)sc2c1,56 cells
3,Cc1c2c(nc3ccccc13)SC(C(Cl)Cl)C2 (stereo not drawn),63 cells
4,Cc1cc(=O)[nH]c(N[N+](=O)[O-])n1,102 cells
5,CCN(CC)CCCOC(=O)C(O)(c1ccccc1)c1ccccc1,41 cells
6,O=C(OC1CN2CCC1CC2)C12CC3CC(CC(C3)C1)C2 (stereo not drawn),91 cells
7,COc1ccc(N/C(=N/P(=O)(N2CCOCC2)N2CCOCC2)N2CCOCC2)cc1,69 cells
8,CC(Cc1ccc(O)cc1)NCC(O)c1cc(O)cc(O)c1 (stereo not drawn),68 cells
9,Cc1cccc(C)c1OP(C)(N)=O (stereo not drawn),58 cells
10,CC(C)(C)c1ccc(OP(C)(=O)Nc2ccc(SC(F)(F)F)cc2)cc1 (stereo not drawn),65 cells
11,Cc1ccc(OP(=O)(Nc2ccc([N+](=O)[O-])cn2)Oc2ccc(C)cc2)cc1,93 cells
12,Cc1ccc2nc3c(c(C)c2c1)CC(C(Cl)Cl)S3 (stereo not drawn),91 cells
13,O=[N+]([O-])c1cc([N+](=O)[O-])c(Nc2cccnc2)c([N+](=O)[O-])c1,74 cells
14,COc1cc(C(=O)NCC2(N3CCOCC3)CCCCC2)ccc1OCC(C)C,78 cells
15,C[As](=O)(O)c1cccc(C(=O)O)c1,81 cells
16,O=[As](O)(c1ccc(O)cc1)c1ccccc1O,50 cells
17,O=[N+]([O-])c1cc([N+](=O)[O-])c(-c2ccn[nH]2)s1,80 cells
18,COc1ccc(OP(C)(=O)Nc2cccc(F)c2)cc1 (stereo not drawn),74 cells
19,CCN(CC)C(=S)SC(NC=O)C(Cl)(Cl)Cl (stereo not drawn),61 cells
20,O=C(OC1CN2CCC1CC2)c1cccc2[nH]cnc12 (stereo not drawn),54 cells
21,COc1ccccc1OP(C)(=O)Nc1cc(Cl)ccc1C (stereo not drawn),66 cells
22,CC(C)NC(=O)NP(=O)(Oc1ccccc1)Oc1ccccc1,39 cells
23,Cc1cc(C)cc(OP(C)(N)=O)c1 (stereo not drawn),72 cells
24,ClCCSc1nnc(-c2cccnc2)o1,83 cells
25,CCOC(=O)c1ccc(NP(C)(=O)Oc2ccccc2)cc1 (stereo not drawn),81 cells
26,Cc1ccc(NP(C)(=O)Oc2ccccc2)c(C)c1 (stereo not drawn),93 cells
27,CC(C)c1ccc(OP(=O)(Nc2ccccn2)Oc2ccccc2F)cc1 (stereo not drawn),50 cells

row,Structure (SMILES),cell count
1,COc1ccccc1OP(C)(=O)Nc1ccc(C)cc1 (stereo not drawn),33 cells
2,Cc1cc(SC(NC(=O)c2ccccc2)C(Cl)(Cl)Cl)nc(C(C)C)n1 (stereo not drawn),55 cells
3,CCCCOc1ccc(C(=O)NCC2(N3CCCCC3)CCCCC2)cc1OC,42 cells
4,CCOC(=O)Nc1ccc([As](=O)(O)O)c(O)c1,70 cells
5,COc1ccccc1OP(C)(=O)Nc1ccccc1 (stereo not drawn),36 cells
6,O=P(Nc1ccccn1)(c1cccc2ccccc12)c1cccc2ccccc12,61 cells
7,Cc1cc(SC(NC=O)C(Cl)(Cl)Cl)ncn1 (stereo not drawn),88 cells
8,CP(=O)(Nc1ccccc1Br)Oc1ccccc1 (stereo not drawn),57 cells
9,CP(=S)(Nn1cnnc1)Oc1ccccc1 (stereo not drawn),51 cells
10,CCOC(=O)Nc1cccc([As](=O)(O)O)c1,80 cells
11,O=C(Nc1ccncc1[N+](=O)[O-])c1ccc([N+](=O)[O-])cc1[N+](=O)[O-],72 cells
12,Cc1cc(C)cc(OP(C)(=O)Nc2ccc(SC(F)(F)F)cc2)c1 (stereo not drawn),65 cells
13,CCc1ccc(OP(C)(=O)N2CCN(c3ccc([N+](=O)[O-])cc3)CC2)cc1 (stereo not drawn),54 cells
14,O=C(COc1ccccc1)OC1CN2CCC1CC2 (stereo not drawn),87 cells
15,CP(=O)(NC(=O)Nc1ccccc1)Oc1ccccc1 (stereo not drawn),42 cells
16,CP(=O)(Oc1ccccc1)OC(c1ccccc1)C(F)(F)F (stereo not drawn),66 cells
17,Cc1cccc(C)c1OP(C)(=O)Nc1ccc(SC(F)(F)F)cc1 (stereo not drawn),30 cells
18,CP(=O)(Nc1ccc(SC(F)(F)F)cc1)Oc1ccc(Cl)cc1 (stereo not drawn),50 cells
19,COP1(=S)c2c(C)nn(CCC#N)c2N=C(c2ccc(F)cc2)N1C (stereo not drawn),55 cells
20,CCC(C)N(CC(C)C)C(=S)SC(NC(C)=O)C(Cl)(Cl)Cl (stereo not drawn),87 cells
21,CP(=O)(Nc1ccccn1)Oc1ccc(Cl)cc1 (stereo not drawn),49 cells
22,O=C(OC1CN2CCC1CC2)c1cccc([N+](=O)[O-])c1 (stereo not drawn),45 cells
23,CCOP(C)(=S)SCC(=O)NC(C)C(=O)O (stereo not drawn),44 cells
24,CCOC(=O)c1ccc(NC(=O)C(C)(CCl)SC)cc1 (stereo not drawn),64 cells
25,CCOC(=O)c1ccc(NP(C)(=O)Oc2ccc(OC)cc2)cc1 (stereo not drawn),63 cells
26,O=[N+]([O-])c1cc([N+](=O)[O-])c(O)c([N+](=O)[O-])c1.c1ccc(Oc2ccncc2)cc1,59 cells
